Data as given in the supplement of paper PMC12819154, “High-throughput peptide-centric local stability assay extends protein–ligand identification to membrane proteins, tissues and bacteria” (Nature Structural & Molecular Biology, 2025).
This is one part of the list. Small differences around the control level are noise.

Amino acid sequences for entries named in this document (tags omitted). A change or cut given only in a name is not applied to a line headed by its entry.
UniProt Q3TC33: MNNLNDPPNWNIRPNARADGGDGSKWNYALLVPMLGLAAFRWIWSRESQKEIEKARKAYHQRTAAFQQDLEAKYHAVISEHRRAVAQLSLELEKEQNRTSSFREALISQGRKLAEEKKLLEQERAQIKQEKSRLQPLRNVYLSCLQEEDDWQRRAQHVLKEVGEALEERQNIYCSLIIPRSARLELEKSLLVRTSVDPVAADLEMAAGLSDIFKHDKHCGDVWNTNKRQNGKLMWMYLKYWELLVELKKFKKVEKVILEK
UniProt Q03734: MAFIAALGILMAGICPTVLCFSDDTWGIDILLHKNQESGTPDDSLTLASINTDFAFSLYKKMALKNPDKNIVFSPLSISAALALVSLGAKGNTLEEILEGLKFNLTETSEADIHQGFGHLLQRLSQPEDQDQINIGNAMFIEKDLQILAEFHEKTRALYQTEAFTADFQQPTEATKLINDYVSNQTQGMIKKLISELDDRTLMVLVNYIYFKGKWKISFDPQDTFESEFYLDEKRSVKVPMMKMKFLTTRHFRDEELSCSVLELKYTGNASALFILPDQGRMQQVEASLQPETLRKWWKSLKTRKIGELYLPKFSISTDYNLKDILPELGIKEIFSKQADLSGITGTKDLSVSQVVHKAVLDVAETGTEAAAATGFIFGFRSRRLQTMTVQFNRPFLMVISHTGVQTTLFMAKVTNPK
UniProt Q03145, whole entry: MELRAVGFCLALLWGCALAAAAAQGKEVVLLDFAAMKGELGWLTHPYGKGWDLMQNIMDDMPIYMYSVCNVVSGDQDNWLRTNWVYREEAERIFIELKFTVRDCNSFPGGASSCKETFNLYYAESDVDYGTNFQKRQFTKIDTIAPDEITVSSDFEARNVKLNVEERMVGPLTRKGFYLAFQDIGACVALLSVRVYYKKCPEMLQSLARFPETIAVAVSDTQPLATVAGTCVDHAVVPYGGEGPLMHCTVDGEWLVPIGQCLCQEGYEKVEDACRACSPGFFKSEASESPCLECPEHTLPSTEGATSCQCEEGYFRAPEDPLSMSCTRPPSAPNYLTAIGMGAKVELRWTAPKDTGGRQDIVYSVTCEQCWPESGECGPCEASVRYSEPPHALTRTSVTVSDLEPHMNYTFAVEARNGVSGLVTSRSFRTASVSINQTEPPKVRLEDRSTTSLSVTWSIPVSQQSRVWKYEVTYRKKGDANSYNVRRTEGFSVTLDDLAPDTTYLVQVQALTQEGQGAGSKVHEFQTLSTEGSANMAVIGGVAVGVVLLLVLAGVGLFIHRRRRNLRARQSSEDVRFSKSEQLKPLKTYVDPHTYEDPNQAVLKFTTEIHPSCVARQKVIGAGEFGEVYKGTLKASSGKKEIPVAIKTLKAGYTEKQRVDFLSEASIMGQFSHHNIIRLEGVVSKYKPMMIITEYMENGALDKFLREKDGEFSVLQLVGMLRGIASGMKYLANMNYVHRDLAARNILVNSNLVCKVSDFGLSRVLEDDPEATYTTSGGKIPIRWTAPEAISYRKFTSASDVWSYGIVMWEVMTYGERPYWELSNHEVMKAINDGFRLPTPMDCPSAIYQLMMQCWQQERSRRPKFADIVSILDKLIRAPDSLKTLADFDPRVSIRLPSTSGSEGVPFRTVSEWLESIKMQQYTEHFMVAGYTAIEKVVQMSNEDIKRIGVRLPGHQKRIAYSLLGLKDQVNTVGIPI
UniProt Q06185: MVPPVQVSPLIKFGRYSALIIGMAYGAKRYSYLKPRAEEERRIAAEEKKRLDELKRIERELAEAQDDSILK
UniProt Q3TWI9: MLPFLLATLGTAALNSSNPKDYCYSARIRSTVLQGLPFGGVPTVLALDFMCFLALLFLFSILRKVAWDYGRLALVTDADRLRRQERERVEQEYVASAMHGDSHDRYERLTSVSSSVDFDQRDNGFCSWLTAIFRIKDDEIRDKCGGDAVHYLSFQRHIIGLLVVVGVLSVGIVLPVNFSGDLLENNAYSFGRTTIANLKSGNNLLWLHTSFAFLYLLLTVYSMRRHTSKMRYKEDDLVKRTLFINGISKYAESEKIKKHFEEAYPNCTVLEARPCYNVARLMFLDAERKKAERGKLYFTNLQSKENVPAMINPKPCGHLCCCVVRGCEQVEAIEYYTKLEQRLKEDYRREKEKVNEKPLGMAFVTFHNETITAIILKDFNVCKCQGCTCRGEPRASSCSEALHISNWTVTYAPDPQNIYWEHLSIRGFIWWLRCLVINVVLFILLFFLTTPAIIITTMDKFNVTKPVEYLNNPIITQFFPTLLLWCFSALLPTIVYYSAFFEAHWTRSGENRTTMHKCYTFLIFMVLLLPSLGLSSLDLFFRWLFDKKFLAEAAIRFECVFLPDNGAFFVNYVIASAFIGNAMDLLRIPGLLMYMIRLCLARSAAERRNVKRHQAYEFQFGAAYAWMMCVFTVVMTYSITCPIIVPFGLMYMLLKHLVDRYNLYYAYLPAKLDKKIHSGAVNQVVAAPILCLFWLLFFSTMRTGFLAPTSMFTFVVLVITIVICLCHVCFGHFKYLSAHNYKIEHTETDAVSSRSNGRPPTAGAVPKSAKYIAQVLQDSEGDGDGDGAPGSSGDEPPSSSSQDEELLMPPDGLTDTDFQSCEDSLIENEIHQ
UniProt Q18PI6: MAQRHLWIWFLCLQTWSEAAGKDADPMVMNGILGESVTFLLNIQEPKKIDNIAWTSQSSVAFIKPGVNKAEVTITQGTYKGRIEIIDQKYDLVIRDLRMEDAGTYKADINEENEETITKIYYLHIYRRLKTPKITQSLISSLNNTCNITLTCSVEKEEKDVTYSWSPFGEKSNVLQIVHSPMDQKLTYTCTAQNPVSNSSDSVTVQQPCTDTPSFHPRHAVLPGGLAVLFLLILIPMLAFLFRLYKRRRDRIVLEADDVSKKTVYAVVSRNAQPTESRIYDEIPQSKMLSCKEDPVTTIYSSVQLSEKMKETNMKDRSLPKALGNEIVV
UniProt Q3TPX4: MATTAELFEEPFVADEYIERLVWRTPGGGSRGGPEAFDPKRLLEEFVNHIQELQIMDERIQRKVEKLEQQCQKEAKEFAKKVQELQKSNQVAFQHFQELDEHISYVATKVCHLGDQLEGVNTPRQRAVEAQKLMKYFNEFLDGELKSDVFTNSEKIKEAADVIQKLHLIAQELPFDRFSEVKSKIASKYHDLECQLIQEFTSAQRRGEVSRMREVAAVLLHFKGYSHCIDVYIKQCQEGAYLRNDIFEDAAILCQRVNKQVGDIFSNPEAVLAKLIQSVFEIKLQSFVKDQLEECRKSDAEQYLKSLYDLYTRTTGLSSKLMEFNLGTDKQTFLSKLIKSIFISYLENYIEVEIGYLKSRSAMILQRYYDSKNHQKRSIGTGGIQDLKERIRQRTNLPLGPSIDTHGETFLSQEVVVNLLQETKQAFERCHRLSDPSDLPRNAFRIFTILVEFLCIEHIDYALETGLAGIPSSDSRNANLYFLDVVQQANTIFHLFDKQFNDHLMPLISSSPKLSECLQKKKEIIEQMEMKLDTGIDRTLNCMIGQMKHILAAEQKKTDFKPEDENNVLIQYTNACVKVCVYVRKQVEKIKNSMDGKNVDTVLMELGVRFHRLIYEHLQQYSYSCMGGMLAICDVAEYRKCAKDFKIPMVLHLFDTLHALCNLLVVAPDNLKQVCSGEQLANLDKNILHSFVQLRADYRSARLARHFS
UniProt Q0VGY8: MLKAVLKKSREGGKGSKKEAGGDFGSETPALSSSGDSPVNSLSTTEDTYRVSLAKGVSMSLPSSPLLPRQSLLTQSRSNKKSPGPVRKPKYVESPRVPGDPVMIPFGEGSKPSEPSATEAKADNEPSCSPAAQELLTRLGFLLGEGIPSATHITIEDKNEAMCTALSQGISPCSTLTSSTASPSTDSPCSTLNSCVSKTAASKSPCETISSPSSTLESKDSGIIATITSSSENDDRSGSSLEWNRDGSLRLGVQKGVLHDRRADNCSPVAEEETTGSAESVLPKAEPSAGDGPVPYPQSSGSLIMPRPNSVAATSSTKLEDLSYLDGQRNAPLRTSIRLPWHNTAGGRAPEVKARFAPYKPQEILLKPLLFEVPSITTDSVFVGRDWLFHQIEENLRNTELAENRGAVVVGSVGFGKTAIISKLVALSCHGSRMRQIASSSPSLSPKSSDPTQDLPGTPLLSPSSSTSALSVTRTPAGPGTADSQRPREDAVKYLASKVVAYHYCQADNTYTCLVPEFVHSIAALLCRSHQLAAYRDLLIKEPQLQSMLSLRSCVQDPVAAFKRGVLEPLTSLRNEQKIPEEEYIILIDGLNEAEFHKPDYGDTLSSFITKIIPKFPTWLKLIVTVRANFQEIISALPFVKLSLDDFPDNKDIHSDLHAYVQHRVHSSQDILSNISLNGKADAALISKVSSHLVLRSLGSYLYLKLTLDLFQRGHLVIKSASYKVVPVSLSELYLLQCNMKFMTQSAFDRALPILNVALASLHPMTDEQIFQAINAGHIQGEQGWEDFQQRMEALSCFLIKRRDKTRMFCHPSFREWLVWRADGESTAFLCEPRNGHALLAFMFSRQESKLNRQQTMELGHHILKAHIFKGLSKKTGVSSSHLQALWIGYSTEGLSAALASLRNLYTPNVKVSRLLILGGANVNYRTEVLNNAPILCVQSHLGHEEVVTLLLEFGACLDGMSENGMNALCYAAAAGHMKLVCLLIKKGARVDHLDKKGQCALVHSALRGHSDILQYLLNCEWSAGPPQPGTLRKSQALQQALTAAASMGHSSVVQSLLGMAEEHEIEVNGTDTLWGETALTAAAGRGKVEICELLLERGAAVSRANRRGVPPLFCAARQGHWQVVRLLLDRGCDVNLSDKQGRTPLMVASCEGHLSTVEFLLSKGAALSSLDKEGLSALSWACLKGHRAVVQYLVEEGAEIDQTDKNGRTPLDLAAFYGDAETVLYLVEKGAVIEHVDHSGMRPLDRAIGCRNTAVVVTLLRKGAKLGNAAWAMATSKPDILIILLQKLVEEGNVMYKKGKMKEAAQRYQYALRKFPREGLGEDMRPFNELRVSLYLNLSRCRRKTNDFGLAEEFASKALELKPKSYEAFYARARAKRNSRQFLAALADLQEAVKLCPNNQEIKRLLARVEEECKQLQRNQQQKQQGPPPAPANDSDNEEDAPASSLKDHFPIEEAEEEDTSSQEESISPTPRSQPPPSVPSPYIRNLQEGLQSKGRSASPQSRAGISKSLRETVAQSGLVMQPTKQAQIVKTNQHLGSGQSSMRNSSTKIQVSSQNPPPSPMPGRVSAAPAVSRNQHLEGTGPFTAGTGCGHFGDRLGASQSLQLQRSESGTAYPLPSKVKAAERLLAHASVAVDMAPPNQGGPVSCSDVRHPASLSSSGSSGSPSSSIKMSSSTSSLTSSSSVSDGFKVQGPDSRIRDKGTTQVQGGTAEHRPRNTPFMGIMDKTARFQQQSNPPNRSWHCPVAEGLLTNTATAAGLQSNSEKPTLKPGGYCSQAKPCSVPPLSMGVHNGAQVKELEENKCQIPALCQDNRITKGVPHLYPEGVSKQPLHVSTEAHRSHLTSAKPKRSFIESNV
UniProt Q04736, whole entry: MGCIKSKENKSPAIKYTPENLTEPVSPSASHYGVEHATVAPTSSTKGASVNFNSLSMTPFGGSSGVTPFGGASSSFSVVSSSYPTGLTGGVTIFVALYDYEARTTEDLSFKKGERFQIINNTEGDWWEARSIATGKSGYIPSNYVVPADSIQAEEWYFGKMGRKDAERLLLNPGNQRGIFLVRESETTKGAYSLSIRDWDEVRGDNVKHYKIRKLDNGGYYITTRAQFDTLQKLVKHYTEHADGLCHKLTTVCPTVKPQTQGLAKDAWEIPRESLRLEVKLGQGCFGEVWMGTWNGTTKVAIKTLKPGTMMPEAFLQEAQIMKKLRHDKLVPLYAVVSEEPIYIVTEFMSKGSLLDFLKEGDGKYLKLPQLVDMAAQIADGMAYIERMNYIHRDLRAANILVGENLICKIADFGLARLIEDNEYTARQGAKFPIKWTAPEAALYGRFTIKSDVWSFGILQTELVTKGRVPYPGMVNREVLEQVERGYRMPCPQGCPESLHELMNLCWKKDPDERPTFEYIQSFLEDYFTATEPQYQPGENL
UniProt Q3TLD5, whole entry: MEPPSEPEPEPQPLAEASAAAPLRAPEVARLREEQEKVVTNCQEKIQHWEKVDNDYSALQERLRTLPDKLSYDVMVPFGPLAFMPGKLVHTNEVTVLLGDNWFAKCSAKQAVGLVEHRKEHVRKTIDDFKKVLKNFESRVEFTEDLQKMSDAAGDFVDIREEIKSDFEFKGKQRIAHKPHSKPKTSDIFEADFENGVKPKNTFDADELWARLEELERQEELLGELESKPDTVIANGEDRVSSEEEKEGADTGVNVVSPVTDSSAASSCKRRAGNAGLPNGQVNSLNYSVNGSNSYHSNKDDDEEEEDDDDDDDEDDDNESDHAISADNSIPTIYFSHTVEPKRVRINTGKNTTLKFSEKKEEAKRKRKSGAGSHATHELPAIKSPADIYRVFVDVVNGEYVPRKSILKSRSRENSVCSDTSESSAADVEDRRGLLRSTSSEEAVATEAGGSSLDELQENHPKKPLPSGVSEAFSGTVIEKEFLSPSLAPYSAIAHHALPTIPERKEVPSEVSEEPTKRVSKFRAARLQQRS

Compound: CN[C@@H]1C[C@H]2O[C@@](C)([C@@H]1OC)n1c3ccccc3c3c4c(c5c6ccccc6n2c5c31)C(=O)NC4 [staurosporine]
Test: log2 fold change of tryptic peptide abundance, ligand vs vehicle (limited proteolysis) (log2 ratio); higher = more trypsin-susceptible (destabilized)
Details: ligand concentration: 20 uM; sample: mouse liver crude lysate; replicate design: treated separately

Target	log2 fold change
UniProt Q07832 (peptide sequence: SASNRLKAS, peptide start residue: 595)	0.131
UniProt Q3TC33 (peptide sequence: YHAVISEHR, peptide start residue: 74)	0.355
UniProt Q3THK7 (peptide sequence: VIEPLKDFHK, peptide start residue: 407)	0.631
UniProt Q03734 (peptide sequence: DLSVSQVVHK, peptide start residue: 349)	0.29
UniProt Q3TJZ6 (peptide sequence: VPPNHVGKPLLK, peptide start residue: 182)	0.307
UniProt Q3TES0 (peptide sequence: VQGEAQKVER, peptide start residue: 615)	0.0211
UniProt Q3U2A8 (peptide sequence: LRDGNLDPGELAVAAAAQK, peptide start residue: 686)	-0.157
UniProt Q03145 (peptide sequence: SEQLKPLK, peptide start residue: 580)	0.427
UniProt Q3TL26 (peptide sequence: TFIPHLEPLQR, peptide start residue: 127)	0.73
UniProt Q06185 (peptide sequence: RLDELKR, peptide start residue: 50)	-0.282
UniProt Q2HXL6 (peptide sequence: MGVSLIHLK, peptide start residue: 596)	0.273
UniProt Q3TBD2 (peptide sequence: CLETLAIQCGHKK, peptide start residue: 736)	0.474
UniProt Q0VBM2 (peptide sequence: FEGYENPEAVK, peptide start residue: 520)	0.104
UniProt Q3TWI9 (peptide sequence: KFLAEAAIR, peptide start residue: 548)	0.373
UniProt Q06180 (peptide sequence: VQDTVEESSESILRK, peptide start residue: 332)	-0.552
UniProt Q06986 (peptide sequence: LSCCPTCR, peptide start residue: 109)	0.244
UniProt Q2YDW2 (peptide sequence: SSMVTMAHLADVLSFSGKK, peptide start residue: 334)	0.445
UniProt Q08274 (peptide sequence: ELYFYPGCCRSGSQR, peptide start residue: 130)	-0.147

Retrieved one by one from above (2):
Target	log2 fold change
UniProt Q2YDW2 (peptide sequence: SSMVTMAHLADVLSFSGKK, peptide start residue: 334)	0.445
UniProt Q3TWI9 (peptide sequence: KFLAEAAIR, peptide start residue: 548)	0.373

Additional results.

Target	log2 fold change
UniProt Q3U2S4 (peptide sequence: ESYLQWLR, peptide start residue: 400)	-0.374
UniProt Q18PI6 (peptide sequence: IYDEIPQSK, peptide start residue: 279)	-0.138
UniProt Q3TZX8 (peptide sequence: QVAPAGAHVAVKCKLR, peptide start residue: 64)	0.367
UniProt Q05117 (peptide sequence: WNFPSPYYR, peptide start residue: 132)	-0.136
UniProt Q3TJ91 (peptide sequence: TLYFADTYLR, peptide start residue: 717)	0.272
UniProt Q3TIR3 (peptide sequence: TRPEVGDLLR, peptide start residue: 364)	0.497
UniProt Q3TYD6 (peptide sequence: YFSPPPPAR, peptide start residue: 1416)	0.545
UniProt Q3U0J8 (peptide sequence: NSMSSFRPGR, peptide start residue: 229)	0.509
UniProt Q3TPX4 (peptide sequence: GGPEAFDPKR, peptide start residue: 32)	0.417
UniProt Q0GNC1 (peptide sequence: LNWQKLPSNVAR, peptide start residue: 602)	-0.391
UniProt Q0VGY8 (peptide sequence: LEDLSYLDGQR, peptide start residue: 319)	-0.557
UniProt Q0VGB7 (peptide sequence: FDKEGDVR, peptide start residue: 250)	-0.204
UniProt Q3TIR1 (peptide sequence: MAPGYGDVR, peptide start residue: 299)	-0.219
UniProt Q3U133 (peptide sequence: GEVPKEWGK, peptide start residue: 104)	-0.511
UniProt Q148V7 (peptide sequence: VAVLEFELR, peptide start residue: 204)	0.235
UniProt Q04736 (peptide sequence: LTTVCPTVKPQTQGLAK, peptide start residue: 249)	0.519
UniProt Q07456 (peptide sequence: GVCEEITGAYQK, peptide start residue: 88)	0.777
UniProt Q3TLD5 (peptide sequence: MSDAAGDFVDIR, peptide start residue: 149)	0.27
